According to the supplement of paper PMC10331698:
± gives the standard deviation of the averaged measurements. Most entries show no effect beyond the scatter of the controls.

Legend:
Experiment in all cases: level (log10 ratio to DMSO vehicle control); higher = higher biomarker level / cell amount than vehicle control
[1] = compound: OCCC(F)(F)C(F)(F)C(F)(F)C(F)(F)C(F)(F)C(F)(F)F [6:2 Fluorotelomer alcohol]; settings: 2200 nM; in DMSO
Description: (§1)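 BioMAP Diversity Plus panel of 12 human primary cell co-culture systems (3C, 4H, LPS, SAg, BT, BF4T, BE3C, CASM3C, HDF3CGF, KF3CT, MyoF, Mphg). Compounds were added 1 h before stimulation and left for 24 h (MyoF 48 h; BT 72 h for soluble read-outs or 6 d for IgG). Biomarkers were read by ELISA, cytotoxicity by SRB, PBMC viability and proliferation by Alamar Blue. Each well value was divided by the mean of 8 DMSO control wells on the same plate and log10 transformed; duplicate blinded samples were tested at 4 concentrations.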

1H,1H-Heptafluorobutanol = compound: OCC(F)(F)C(F)(F)C(F)(F)F [1H,1H-Heptafluorobutanol]; settings: 2200 nM; in DMSO
Description: as §1

1-(Perfluorohexyl)octane = compound: CCCCCCCCC(F)(F)C(F)(F)C(F)(F)C(F)(F)C(F)(F)C(F)(F)F [1-(Perfluorohexyl)octane]; settings: in DMSO
Description: as §1

[2] = compound: Cc1ccc(S(=O)(=O)OCC(F)(F)C(F)(F)C(F)(F)C(F)(F)C(F)(F)C(F)F)cc1 [1H,1H,7H-Perfluoroheptyl 4-methylbenzenesulfonate]; settings: 2200 nM; in DMSO
Description: as §1

[3] = compound: FC(F)(F)C(F)(F)C(F)(F)C(F)(F)C(F)(F)C(F)(F)CC1CO1 [3-(Perfluorohexyl)-1,2-epoxypropane]; settings: 2200 nM; in DMSO
Description: as §1

Perfluoropentanoic acid = compound: O=C(O)C(F)(F)C(F)(F)C(F)(F)C(F)(F)F [Perfluoropentanoic acid]; settings: in DMSO
Description: as §1

[4] = compound: O=C(O)C(F)(F)C(F)(F)C(F)(F)OC(F)(F)F [Perfluoro(4-methoxybutanoic) acid]; settings: 2200 nM; in DMSO
Description: as §1

[5] = compound: O=S(=O)(O)CCC(F)(F)C(F)(F)C(F)(F)C(F)(F)C(F)(F)C(F)(F)C(F)(F)C(F)(F)F [8:2 Fluorotelomer sulfonic acid]; settings: in DMSO
Description: as §1

[6] = compound: O=C(O)C(F)(F)C(F)(F)C(F)(F)C(F)(F)C(F)(F)C(F)(F)C(F)(F)C(F)(F)C(F)(F)C(F)F [11-H-Perfluoroundecanoic acid]; settings: 2200 nM; in DMSO
Description: as §1

[7] = compound: CN(C(=O)C(F)(F)C(F)(F)C(F)(F)F)[Si](C)(C)C [N-Methyl-N-trimethylsilylheptafluorobutyramide]; settings: 2200 nM; in DMSO
Description: as §1

[8] = compound: CC(C)(C)C(=O)CC(=O)C(F)(F)C(F)(F)C(F)(F)F [(Heptafluorobutanoyl)pivaloylmethane]; settings: 2200 nM; in DMSO
Description: as §1

[9] = compound: NCC(F)(F)C(F)(F)C(F)(F)C(F)(F)C(F)(F)C(F)(F)C(F)(F)F [1H,1H-Perfluorooctylamine]; settings: 2200 nM; in DMSO
Description: as §1

Octafluoroadipic acid = compound: O=C(O)C(F)(F)C(F)(F)C(F)(F)C(F)(F)C(=O)O [Octafluoroadipic acid]; settings: 2200 nM; in DMSO
Description: as §1

Perfluoroheptanoic acid = compound: O=C(O)C(F)(F)C(F)(F)C(F)(F)C(F)(F)C(F)(F)C(F)(F)F [Perfluoroheptanoic acid]; settings: in DMSO
Description: as §1

Heptafluorobutyramide = compound: NC(=O)C(F)(F)C(F)(F)C(F)(F)F [Heptafluorobutyramide]; settings: 2200 nM; in DMSO
Description: as §1

[10] = compound: CCN(CCO)S(=O)(=O)C(F)(F)C(F)(F)C(F)(F)C(F)(F)C(F)(F)C(F)(F)C(F)(F)C(F)(F)F [N-Ethyl-N-(2-hydroxyethyl)perfluorooctanesulfonamide]; settings: in DMSO
Description: as §1

Test System	level (log10) [1]	level (log10) (1H,1H-Heptafluorobutanol)	level (log10) (1-(Perfluorohexyl)octane; 740 nM)	level (log10) (1-(Perfluorohexyl)octane; 2200 nM)	level (log10) [2]	level (log10) [3]	level (log10) (Perfluoropentanoic acid; 2200 nM)	level (log10) (Perfluoropentanoic acid; 6700 nM)	level (log10) (Perfluoropentanoic acid; 20000 nM)	level (log10) (Perfluoropentanoic acid; 60000 nM)	level (log10) [4]	level (log10) ([5]; 2200 nM)	level (log10) ([5]; 6700 nM)	level (log10) ([5]; 20000 nM)	level (log10) ([5]; 60000 nM)	level (log10) [6]	level (log10) [7]	level (log10) [8]	level (log10) [9]	level (log10) (Octafluoroadipic acid)	level (log10) (Perfluoroheptanoic acid; 2200 nM)	level (log10) (Perfluoroheptanoic acid; 6700 nM)	level (log10) (Perfluoroheptanoic acid; 20000 nM)	level (log10) (Perfluoroheptanoic acid; 60000 nM)	level (log10) (Heptafluorobutyramide)	level (log10) ([10]; 2200 nM)	level (log10) ([10]; 6700 nM)	level (log10) ([10]; 20000 nM)
KF3CT:IL-1alpha	0.022 ± 0.013	0.0105 ± 0.015	0.0265 ± 0.046	0.0105 ± 0.032	0.0005 ± 0.076	0.0005 ± 0.0035	0.0055 ± 0.033	-0.004 ± 0.017	0.004 ± 0.0028	-0.0115 ± 0.021	0.008 ± 0.04	-0.016 ± 0.034	-0.041 ± 0.027	-0.137 ± 0.033	-0.0655 ± 0.046	0.0385 ± 0.047	0.0145 ± 0.0092	0.0085 ± 0.025	-0.014 ± 0.016	0.0155 ± 0.07	-0.0015 ± 0.011	-0.007 ± 0.018	0.016 ± 0.014	-0.0115 ± 0.0064	0.002 ± 0.04	-0.0305 ± 0.019	0.006 ± 0.028	-0.111
MyoF:SRB	0.0045 ± 0.015	0.01 ± 0.0071	-0.0055 ± 0.018	0.009 ± 0.0042	0.0035 ± 0.005	0.0165 ± 0.029	0.0025 ± 0.025	0.003 ± 0.0028	-0.009 ± 0.0014	-0.004 ± 0.0057	-0.009 ± 0.014	-0.0005 ± 0.00071	-0.0005 ± 0.0021	-0.009 ± 0.0014	-0.0035 ± 0.0035	0.0095 ± 0.0078	0.006 ± 0.0071	0.007 ± 0.017	-0.0075 ± 0.005	-0.001 ± 0.016	0.01 ± 0.017	-0.0005 ± 0.00071	0 ± 0.0085	-0.003 ± 0.021	-0.0045 ± 0.005	-0.005 ± 0.0085	-0.0265 ± 0.00071	-0.175 ± 0.07
BE3C:CD87/uPAR	0.0105 ± 0.061	0.015 ± 0.033	0.0155 ± 0.028	0.014 ± 0.0028	0.0315 ± 0.0035	0.0155 ± 0.09	0.018 ± 0.048	-0.0035 ± 0.063	-0.0235 ± 0.026	0.024 ± 0.0014	-0.0195 ± 0.029	0.0105 ± 0.021	0.0225 ± 0.0035	0.0135 ± 0.011	-0.01 ± 0.031	-0.006 ± 0.02	0.023 ± 0.0099	0.0115 ± 0.036	-0.003 ± 0.0028	0.0005 ± 0.0021	0.0185 ± 0.005	-0.0275 ± 0.026	-0.049 ± 0.033	-0.05 ± 0.054	-0.004 ± 0.034	0.0405 ± 0.012	0.012 ± 0.016	-0.024 ± 0.028
4H:VEGFR2	-0.008 ± 0.013	0.037 ± 0.024	0.047 ± 0.072	0.0095 ± 0.032	0.045 ± 0.072	-0.0005 ± 0.0078	0.011 ± 0.057	0.0065 ± 0.056	0.0025 ± 0.013	0.008 ± 0.025	0.024 ± 0.028	0.025 ± 0.048	-0.0345 ± 0.12	0.003 ± 0.0014	-0.026 ± 0.0028	0.018 ± 0.016	0.031 ± 0.0042	0.0245 ± 0.03	0.0355 ± 0.025	0.0185 ± 0.029	0.023 ± 0.052	0.016 ± 0.027	0.022 ± 0.013	0.012 ± 0.054	0.0295 ± 0.0064	-0.0035 ± 0.005	0.0365 ± 0.0092	0.002 ± 0.0042
BF4T:CCL2/MCP-1	0.0425 ± 0.037	0.0205 ± 0.032	0.0245 ± 0.043	0.0045 ± 0.016	-0.003 ± 0.051	0.011 ± 0.082	-0.0165 ± 0.063	0.004 ± 0.047	-0.0035 ± 0.052	-0.0275 ± 0.025	0.0535 ± 0.1	0.049 ± 0.058	0.037 ± 0.023	-0.019 ± 0.0028	-0.002 ± 0.034	-0.129 ± 0.056	0.032 ± 0.018	0.0115 ± 0.016	0.025 ± 0.078	0.0515 ± 0.005	0.048 ± 0.031	0.0155 ± 0.056	0.019 ± 0.067	0.0365 ± 0.12	0.037 ± 0.078	0.0405 ± 0.025	-0.004 ± 0.013	-0.022 ± 0.0028
HDF3CGF:CCL2/MCP-1	-0.0085 ± 0.018	-0.005 ± 0.0099	-0.0075 ± 0.011	-0.0175 ± 0.0035	-0.01 ± 0.031	-0.0005 ± 0.013	-0.053 ± 0.05	-0.03 ± 0.017	-0.054 ± 0.013	-0.022 ± 0.048	0.009 ± 0.02	0.012 ± 0.045	0.0005 ± 0.022	-0.008 ± 0.03	0.0115 ± 0.022	0.0065 ± 0.019	-0.011 ± 0.0014	-0.0195 ± 0.00071	-0.001 ± 0.024	0.0215 ± 0.07	0.0045 ± 0.011	-0.0085 ± 0.0064	0.0135 ± 0.00071	0.0115 ± 0.016	0.01 ± 0.027	0.006 ± 0.0085	-0.0485 ± 0.005	-0.1335 ± 0.00071
CASM3C:CD142/Tissue Factor	0.007 ± 0.073	0.008 ± 0.02	-0.023 ± 0.0042	-0.017 ± 0.0057	-0.016 ± 0.0042	-0.005 ± 0.048	-0.0215 ± 0.032	-0.002 ± 0.0071	-0.013 ± 0.024	-0.0225 ± 0.056	-0.0045 ± 0.0021	0.022 ± 0.045	-0.045 ± 0.0042	-0.067 ± 0.027	-0.0195 ± 0.03	-0.039 ± 0.034	-0.007 ± 0.051	-0.0295 ± 0.012	0.002 ± 0.031	-0.013 ± 0.013	0.0105 ± 0.029	-0.0065 ± 0.012	0.015 ± 0.016	0.015 ± 0.071	-0.013 ± 0.011	0.0075 ± 0.044	-0.0325 ± 0.012	0.0145 ± 0.022
lMphg:SRB-Mphg	0.0055 ± 0.042	0.02 ± 0.023	0.0405 ± 0.011	-0.0075 ± 0.028	0.022 ± 0.013	0.0105 ± 0.015	0.003 ± 0.047	-0.0125 ± 0.022	0.001 ± 0.0071	0.006 ± 0.017	0.014 ± 0.017	0.006 ± 0.028	0.003 ± 0.0028	-0.012 ± 0.014	-0.027 ± 0.013	0.006 ± 0.0014	0.0275 ± 0.021	0.0055 ± 0.029	-0.005 ± 0.011	0.005 ± 0.0057	0.009 ± 0.013	-0.003 ± 0.014	0.005 ± 0.0071	0.004 ± 0.0042	-0.0095 ± 0.015	0.002 ± 0.018	0.0095 ± 0.00071	0.001 ± 0.021
KF3CT:TIMP-2	-0.0035 ± 0.022	-0.008 ± 0.0028	0.0195 ± 0.029	0.033 ± 0.057	0.0085 ± 0.018	-0.021 ± 0.014	-0.0015 ± 0.025	-0.013 ± 0.037	-0.0065 ± 0.0035	0.017 ± 0.045	0.013 ± 0.023	0.006 ± 0.0085	-0.033 ± 0.0042	0.0075 ± 0.0064	0.0225 ± 0.0021	0.022 ± 0.035	-0.008 ± 0.011	-0.001 ± 0.013	-0.032 ± 0.059	0.0155 ± 0.016	0.02 ± 0.013	0.006 ± 0.021	0.0085 ± 0.025	0.031 ± 0.017	0.013 ± 0.0057	0.0275 ± 0.039	0.0855 ± 0.037	0.04 ± 0.0028
